Assay [1] has as its target NS1 protein of influenza A virus synthesized in vitro from pcDNA3-NS1 (coupled transcription/transla (influenza A virus) (UniProt P03496)). Briefly: glutathione Sepharose pull-down.
For assay [2] the target is unchanged. Briefly: glutathione Sepharose pull-down of in vitro translated 35S-NS1.

Sequences of proteins named here, by UniProt entry; tags and fusion partners are left off. A change or cut given only in a name is not applied to a line headed by its entry.
UniProt P03496: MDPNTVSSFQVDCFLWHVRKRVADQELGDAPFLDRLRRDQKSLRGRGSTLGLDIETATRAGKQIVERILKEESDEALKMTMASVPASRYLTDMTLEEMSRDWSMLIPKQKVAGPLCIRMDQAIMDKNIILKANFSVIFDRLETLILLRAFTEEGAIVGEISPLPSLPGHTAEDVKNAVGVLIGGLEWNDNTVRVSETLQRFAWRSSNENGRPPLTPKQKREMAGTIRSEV

The values that follow come from patent publication US20030232325A1.

Results are given in words; binding and its absence hold for the method and conditions named. Some binding calls cover weakened binding; strength is not graded here. Sequences can lack the tags named with a protein.

B1: GST-NS1-BP fusion protein, which carries amino acids 347 to 619 of NS1-BP (protein)
chain: IEKPMSPMQYARSGLGTAEMNGKLIAAGGYNREECLRTVECYNPHTDHWSFLAPMRTPRARFQMAVLMGQLYVVGGSNGHSDDLSCGEMYDSNIDDWIPVPELRTNRCNAGVCALNGKLYIVGGSDPYGQKGLKNCDVFDPVTKLWTSCAPLNIRRHQSAVCELGGYLYIIGGAESWNCLNTVERYNPENNTWTLIAPMNVARRGAGVAVLNGKLFVCGGFDGSHAISCVEMYDPTRNEWKMMGHMTSPRSNAGIATVGNTIYAVEDSMAMNF
Consider B1, for which the binding entry in assay [1] and in assay [2] was “binds” throughout.
